Measurements taken from article PMC7819943, “Rice protein-binding microarrays: a tool to detect cis-acting elements near promoter regions in rice”.
This is one part of the list.

Protein sequences, listed by entry. Tags and fused reporters are not part of them.
UniProt Q0JBA9, entry or part of it: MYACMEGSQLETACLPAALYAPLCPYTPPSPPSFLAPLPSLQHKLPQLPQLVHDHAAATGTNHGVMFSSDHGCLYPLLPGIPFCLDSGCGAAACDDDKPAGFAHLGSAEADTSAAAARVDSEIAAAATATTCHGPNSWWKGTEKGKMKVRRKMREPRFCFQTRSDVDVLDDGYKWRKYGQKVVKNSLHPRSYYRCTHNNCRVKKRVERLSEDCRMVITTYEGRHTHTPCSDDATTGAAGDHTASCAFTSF

Target: OsWRKY34 (Oryza sativa, UniProt Q0JBA9 1-250)
Test: protein-binding microarray (RPBM); PBS, 2% BSA, 51.3 ng/ul salmon testes DNA, 50 uM zinc acetate, 200 nM TF, 25 C, 1 h; high values mean tight binding
Conditions: protein: recombinant; tags: N-terminal polyhistidine and DsRed monomer fusion (pET32a); label: CyDye5-dUTP incorporated in the synthesized complementary strand; 3' TTTTT single-stranded linker to array surface; dsDNA, one strand shown
Summary of the method: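 In PBS with 2% BSA, salmon testes DNA and 50 µM zinc acetate, 200 nM protein was incubated on a custom Agilent array at 25 °C for 1 h and then washed off. The array had been made double-stranded by primer extension with Cy5-dUTP and blocked with 2% BSA. The proteins were transcription factors fused N-terminally to polyhistidine and DsRed, expressed in E. coli BL21-CodonPlus and purified on Ni–NTA. The binding signal is per-feature fluorescence intensity (arbitrary units) from an Axon 4000B scanner.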

| Sequence | binding signal |
| --- | --- |
| ATTTCTAATTTCGAATTTCAGCTATTTTTTATATTGTATTCGGAGTCACCTAGTGCAG | 9050 fluorescence intensity (a.u.) |
| ATTCAATTCGCAGCTATATTTGTTATTTTTGTTACAACTTCGGAGTCACCTAGTGCAG | 13800 fluorescence intensity (a.u.) |
| TATTCAGATACTATACTCTCCTGTTTCCTGACAATTTTATCGGAGTCACCTAGTGCAG | 8460 fluorescence intensity (a.u.) |
| TGTTATTTTCTTGTGAGCCACCTATACACATTATCTTTTACGGAGTCACCTAGTGCAG | 12500 fluorescence intensity (a.u.) |
| TCCCCAACACCTCCACTCCTCTCCTCTTATCCGCGAACATCGGAGTCACCTAGTGCAG | 8300 fluorescence intensity (a.u.) |
| TGCAAGATAGCCTGCCGGCCCCAATCCTAATTGCTGTAATCGGAGTCACCTAGTGCAG | 8130 fluorescence intensity (a.u.) |
| ACCGCCATATCAGCACACGTTTTAGAGCACCAATCATAACCGGAGTCACCTAGTGCAG | 8620 fluorescence intensity (a.u.) |
| CAAACCGCCATTGACCACCGCCCTTCGTCGCCTATAAATACGGAGTCACCTAGTGCAG | 10100 fluorescence intensity (a.u.) |
| CATGTGTTACTGTGTTATGAGATCGTGGAATTAATTCCACCGGAGTCACCTAGTGCAG | 9220 fluorescence intensity (a.u.) |
| TCATCGATTTTTTGCCATCTACTACACGGCTTTTATTTTGCGGAGTCACCTAGTGCAG | 8880 fluorescence intensity (a.u.) |
| AGCTGGTGGTGGTGGAGGGCAATGAGTTCACGAGCGGTCGCGGAGTCACCTAGTGCAG | 9520 fluorescence intensity (a.u.) |
| TTTTTTTTCTCCATGTTTGTTGCAGGCTTATCAGAATGACCGGAGTCACCTAGTGCAG | 10000 fluorescence intensity (a.u.) |
| CGTTGTTCCTTACTCACCTTTTGCCTCTCGCTGCCTTGCCCGGAGTCACCTAGTGCAG | 13500 fluorescence intensity (a.u.) |
| ACCACGTACTGATCCTATCCATTAATCCATAAGCAACCCACGGAGTCACCTAGTGCAG | 9760 fluorescence intensity (a.u.) |
| GACTAGTCATAATATCTTATGACTCATTCTTATGGTATATCGGAGTCACCTAGTGCAG | 8330 fluorescence intensity (a.u.) |
| TTGATGGTCAAATATTCAAATGGTTGACTTATGAAAAATCCGGAGTCACCTAGTGCAG | 8150 fluorescence intensity (a.u.) |
| CAGCCTATATTTATTTTTCTATCGTTTTTCCCATGACCATCGGAGTCACCTAGTGCAG | 9930 fluorescence intensity (a.u.) |
| CTGCGCAAGTGAGCTGGGCCCTATCCTCGTCCACCTTTCACGGAGTCACCTAGTGCAG | 9910 fluorescence intensity (a.u.) |
| AGTAGCGCAACGGCTAGTTTTTTCTCTCCTCGCGTGATGTCGGAGTCACCTAGTGCAG | 8130 fluorescence intensity (a.u.) |
| TATATGTCGAGCCTTTTGCTTTTTATCTATGCCTCCAAAGCGGAGTCACCTAGTGCAG | 10300 fluorescence intensity (a.u.) |
| CATAATTCCCTTACGTATAGTCGCCACACTAGGTGAGCCGCGGAGTCACCTAGTGCAG | 8120 fluorescence intensity (a.u.) |

Look-ups from the list.
In binding signal, TATTCAGATACTATACTCTCCTGTTTCCTGACAATTTTATCGGAGTCACCTAGTGCAG has 8460 fluorescence intensity (a.u.)
In binding signal, CGTTGTTCCTTACTCACCTTTTGCCTCTCGCTGCCTTGCCCGGAGTCACCTAGTGCAG has 13500 fluorescence intensity (a.u.)
In binding signal, ACCACGTACTGATCCTATCCATTAATCCATAAGCAACCCACGGAGTCACCTAGTGCAG has 9760 fluorescence intensity (a.u.)

(cont.)

| Sequence | binding signal |
| --- | --- |
| ATGGGCTTTGTTGTGCTATAAGATCGTATTGGGCTCCTCACGGAGTCACCTAGTGCAG | 9340 fluorescence intensity (a.u.) |
| CGTAACCATCCTTTTCCCTTGTGTTTTTTGCTGACTGGTTCGGAGTCACCTAGTGCAG | 11400 fluorescence intensity (a.u.) |
| GACTCTAATTGCATGCAGTTCTTCAACTTATTTAGAACGTCGGAGTCACCTAGTGCAG | 8230 fluorescence intensity (a.u.) |
| CGTATGGCATCTGGCCCAAACTGCGTTGACCGGCCGAAGACGGAGTCACCTAGTGCAG | 12100 fluorescence intensity (a.u.) |
| ACACCAAATACACTCATTCGTCAACGATGTAATGGCCATCCGGAGTCACCTAGTGCAG | 8520 fluorescence intensity (a.u.) |
| TTTAATCCTCTTCTTCCCCGGCCCATGCATATTCTCTCTGCGGAGTCACCTAGTGCAG | 11500 fluorescence intensity (a.u.) |
| TGACCTCCTTCTTGGACGCCTCGTCGACGTACTTCTGGTACGGAGTCACCTAGTGCAG | 8550 fluorescence intensity (a.u.) |
| GATCCATTCATCCCAACTTCTTCCATAGTACAAATCTCTTCGGAGTCACCTAGTGCAG | 10100 fluorescence intensity (a.u.) |
| ACGGCTACCTCGACCACGGCTCCCTCACAACCTTTGCTTTCGGAGTCACCTAGTGCAG | 9560 fluorescence intensity (a.u.) |
| TCTTCTTCTTTGTGATTCAGGCATCTGTTTATCGGTGTGTCGGAGTCACCTAGTGCAG | 9300 fluorescence intensity (a.u.) |
| AGTGTGTAGGGATGTTGAGATTTCTTTTGATGTTGTTTTACGGAGTCACCTAGTGCAG | 9450 fluorescence intensity (a.u.) |
| GCCGTCCCTCCATCACTGGCCGTTGCTACGCGCACATATCCGGAGTCACCTAGTGCAG | 10300 fluorescence intensity (a.u.) |
| GTTGTCTGCGTTCCACACCAATAACGGTGTTATCCATTAGCGGAGTCACCTAGTGCAG | 8340 fluorescence intensity (a.u.) |
| GTCCCTATCCGCATCCGGTAGCCACCCCGCAGGCCGCGGCCGGAGTCACCTAGTGCAG | 9110 fluorescence intensity (a.u.) |
| CTATCCTTTACATGTTTTATATGTTGCCACTTTCATATGTCGGAGTCACCTAGTGCAG | 10800 fluorescence intensity (a.u.) |
| TTATAACATCTCTAGCTTCCTTTTCTAACCGTTTAACTTTCGGAGTCACCTAGTGCAG | 8410 fluorescence intensity (a.u.) |
| ACGTTGATTATATATCAAAATAGCGTTGACTAATAAGCAACGGAGTCACCTAGTGCAG | 8240 fluorescence intensity (a.u.) |
| CGCCGCCACCGCGACTCCTCGCATTCGTCCCCACCACATCCGGAGTCACCTAGTGCAG | 9990 fluorescence intensity (a.u.) |
| ATGAAGAGATTAGTTAGGGATTTGGTTGGATTGGATTGGACGGAGTCACCTAGTGCAG | 10700 fluorescence intensity (a.u.) |
| TTAGTGATCGTTTCCAGTCAAGCCGGCCTCGAATTAATTCCGGAGTCACCTAGTGCAG | 10200 fluorescence intensity (a.u.) |
| TACCAACATTGTAGCAACAGATTCATCTCTCTTTTTTTTTCGGAGTCACCTAGTGCAG | 18100 fluorescence intensity (a.u.) |
